From PubChem BioAssay AID540276 (National Center for Advancing Translational Sciences (NCATS), 2011)
About 5,400 (1.8%) of roughly 300,000 compounds were called active. Inconclusive means that the source gave no clear call. Such entries were picked first, then a sample of the others. Calls come from the whole dose curve; tested in HEK293 cells. Potencies of inconclusive entries are doubtful fits and often do not repeat.

Test: qHTS for inhibitors of binding or entry into cells for Marburg Virus
Details: Marburg virus pseudotyped entry inhibition, cell reporter; series mostly up to 37.8 µM
Potency is the fitted concentration of half-maximal effect.

Row | Structure (SMILES) | Potency
1 | CCc1cc2c(=O)c(-c3ccc4c(c3)OCCO4)c(C)oc2cc1OS(C)(=O)=O | inconclusive: 35.5 µM [inhibitor, single point]
2 | CCCC(c1nnnn1CC1CCCO1)N1CCN(c2nc3ccccc3s2)CC1 (stereo not drawn) | inconclusive: 14.1 µM [inhibitor, partial curve, poor fit]
3 | COc1ccc(/C=N/NS(=O)(=O)c2ccc(C)cc2)cc1 | inactive
4 | CCCCCCCCC1=NCCc2c1[nH]c1ccccc21 | inconclusive: 8.91 µM [inhibitor, partial curve, poor fit]
5 | CCn1c(CNC(=O)C23CC4CC(CC(C4)C2)C3)nnc1SCC(=O)Nc1ccc(OC)cc1 | inconclusive: 7.08 µM [inhibitor, full curve, poor fit]
6 | O=C(COc1cccc(Cl)c1)N1CCC(c2nc3ccccc3s2)CC1 | inactive
7 | Cc1nc2sc(C(=O)c3ccccc3)c(N)c2c2c1CCCC2 | inconclusive: 29.1 µM [inhibitor, single point]
8 | COc1cc(OC)c(NC(=O)Nc2sc3nc4n(c(=O)c3c2C)CCC(C)CC4)cc1Cl (stereo not drawn) | inactive
9 | Cc1ccc(-n2c(SCC(N)=O)nc3c(oc4ccccc43)c2=O)cc1 | inconclusive: 22.4 µM [inhibitor, partial curve, poor fit]
10 | O=C(c1ccco1)N1CCN(c2ncnc3c2cnn3-c2ccccc2)CC1 | inconclusive: 15.8 µM [inhibitor, single point]
11 | O=C(NC1CN2CCC1CC2)c1cc(Cl)c([N+](=O)[O-])c2nc[nH]c12 (stereo not drawn) | inconclusive: 35.5 µM [inhibitor, partial curve, poor fit]
12 | O=C(Nc1ccc(N2CCOCC2)cc1)C1CCN(S(=O)(=O)c2ccc3c(c2)OCCO3)CC1 | inactive
13 | COc1ccccc1NC(=O)CN1C(=O)CSC(C)C1=O (stereo not drawn) | inactive
14 | Cc1ccc(C)c(OCC(O)CN2CCN(CCN3C(=O)c4cccc5cccc(c45)C3=O)CC2)c1 (stereo not drawn) | inconclusive: 20.6 µM [inhibitor, single point]
15 | CCOc1ccccc1NC(=O)C(C)n1nnc2sc3c(c2c1=O)CCCC3 (stereo not drawn) | inactive
16 | CCOc1ccccc1Nc1ncnc2ccccc12 | inactive
17 | CCn1cc(C(C)NC(=O)COc2ccc(Cl)cc2C)c(C)n1 (stereo not drawn) | inconclusive: 14.6 µM [inhibitor, single point]
18 | O=C(O)c1ccc(NC(=O)c2ccc(Cl)cc2)c(NC(=O)c2ccc(Cl)cc2)c1 | inactive
19 | O=C(CN1CCCCCC1)Nc1ccccc1OC(F)F | inconclusive: 12.6 µM [inhibitor, single point]
20 | COc1ccc(N=C(c2ccccc2)c2c(C)[nH]n(-c3ccccc3)c2=O)c(OC)c1 | inconclusive: 10 µM [inhibitor, partial curve]
21 | COc1cccc(C2=NOC(C(=O)Nc3cc(OC)c(OC)c(OC)c3)C2)c1 (stereo not drawn) | inconclusive: 5.8 µM [inhibitor, full curve, poor fit]
22 | CC(=O)c1ccc(NC(=O)CSc2nc(N3CCOCC3)nc(N3CCOCC3)n2)cc1 | inactive
23 | CCOC(=O)/C(=C\c1cccc(O)c1)c1nc2sc(C)c(C)c2c(=O)[nH]1 | inconclusive: 22.4 µM [inhibitor, single point]

Row | Structure (SMILES) | Potency
24 | c1coc(Cn2nnnc2CN2CCN(C3CCCCC3)CC2)c1 | inactive
25 | O=C(c1ccc(Cl)cc1Cl)N1CCC(c2nc3c(nnn3Cc3ccco3)c(=O)[nH]2)CC1 | inconclusive: 7.08 µM [inhibitor, partial curve, poor fit]
26 | NC1=NC(=O)C2(COC(c3ccccc3Cl)OC2)S1 (stereo not drawn) | inconclusive: 0.164 µM [inhibitor, full curve, poor fit]
27 | Cc1ccc2[nH]c(C(=O)O)c(NC(=O)CN3CCN(c4cccc(C)c4C)CC3)c2c1 | inconclusive: 3.98 µM [inhibitor, full curve, poor fit]
28 | COC(=O)c1ccc(Cl)c(NS(=O)(=O)c2ccc3c(c2)OCCO3)c1 | inconclusive: 7.3 µM [inhibitor, single point]
29 | COC1=NS(=O)(=O)c2ccccc21 | inactive
30 | CCOc1ccc(C(=O)/C=C/c2ccc(OC)c(OC)c2)cc1 | inconclusive: 35.5 µM [inhibitor, single point]
31 | COc1ccc(Nc2cc(C(=O)NCc3ccccc3)c3ccccc3n2)cc1 | inconclusive: 20 µM [activator, partial curve, poor fit]
32 | COc1ccc(/C=N/Nc2snc(SC)c2C#N)cc1OC | inconclusive: 5.01 µM [inhibitor, partial curve, poor fit]
33 | Cc1ccc(C(=O)Nc2nccs2)cc1S(=O)(=O)N1CCCCC1 | inconclusive: 35.5 µM [inhibitor, single point]
34 | CCOC(=O)c1sc(Nc2nc(OC)cc(OC)n2)nc1C | inconclusive: 35.5 µM [inhibitor, single point]
35 | Cc1csc(N/N=C/c2ccc([N+](=O)[O-])cc2)n1 | inconclusive: 22.4 µM [inhibitor, single point]
36 | CC(c1nnnn1C(C)(C)C)N(Cc1cccnc1)Cc1ccccc1Cl (stereo not drawn) | inconclusive: 35.5 µM [inhibitor, single point]
37 | C=CCn1c(SCC(=O)NCC2CCCO2)nc2scc(-c3ccc(OC)cc3)c2c1=O (stereo not drawn) | inconclusive: 3.16 µM [inhibitor, partial curve, poor fit]
38 | Cc1cccc(C(=O)NCCCNC(=O)c2cccc(C)c2)c1 | inactive
39 | COc1ccccc1C(=O)CSc1nccn1C | inactive
40 | CCN(CC)CC(=O)Nc1cc(N(C)C)nc2ccccc12 | inconclusive: 11.2 µM [inhibitor, partial curve, poor fit]
41 | CCCCNC(=O)N1CCN(c2ccnc3cc(Cl)ccc23)CC1 | inconclusive: 7.94 µM [inhibitor, partial curve, poor fit]
42 | O=C(/C=N/O)NCCCCNC(=O)/C=N/O | inconclusive: 0.944 µM [activator, single point]
43 | CC(C)OCCCn1c(=O)c2ccccc2n2c(-c3ccc(F)c(F)c3)nnc12 | inconclusive: 35.5 µM [inhibitor, single point]
44 | C/C(=N\NC(=O)Cc1ccc(F)cc1)c1ccc(F)cc1 | inconclusive: 3.98 µM [activator, partial curve, poor fit]
45 | N#Cc1ccc(C(=O)Nc2cccc(NC(=O)c3ccco3)c2)c(F)c1 | inactive
46 | CCNC(=S)NNC(=O)c1ccccn1 | inconclusive: 18.4 µM [inhibitor, partial curve, poor fit]

Among those listed so far, 2 contain a cyano group.
Row | Structure (SMILES) | Potency
32 | COc1ccc(/C=N/Nc2snc(SC)c2C#N)cc1OC | inconclusive: 5.01 µM [inhibitor, partial curve, poor fit]
45 | N#Cc1ccc(C(=O)Nc2cccc(NC(=O)c3ccco3)c2)c(F)c1 | inactive

(more compounds)

Row | Structure (SMILES) | Potency
47 | Cc1cc(C)cc(C(=O)NC(=S)Nc2ccc3c(c2)OCCO3)c1 | inconclusive: 3.16 µM [activator, single point]
48 | Cc1ccc(-c2csc(Cc3nc(-c4ccc5c(c4)CCC(=O)N5)cs3)n2)cc1 | inactive
49 | CN(C)S(=O)(=O)c1cccc(NC(=S)NCc2ccco2)c1 | inactive
50 | O=C(COC(=O)c1ccccc1C(=O)N1CCN(c2ccccc2)CC1)Nc1ccc(F)cc1 | inconclusive: 22.4 µM [inhibitor, single point]
51 | CC(C)Oc1cccc(C(=O)NC(=S)Nc2ccccc2)c1 | inactive
52 | CCc1cc(C(=O)NC(C)C2CCCO2)cs1 (stereo not drawn) | inconclusive: 17.8 µM [activator, single point]
53 | C/C(=N/NC(=O)c1cccs1)c1ccc(NC(=O)COc2ccc(Cl)cc2)cc1 | inconclusive: 28.2 µM [inhibitor, single point]
54 | Cc1cccc(OCC(=O)NCC2(N3CCN(C)CC3)CCCCC2)c1 | inconclusive: 10 µM [inhibitor, partial curve, poor fit]
55 | O=S(=O)(NC1CCCCC1N1CCN(c2ccccc2F)CC1)c1ccc(Cl)cc1 (stereo not drawn) | inconclusive: 6.31 µM [inhibitor, partial curve, poor fit]
56 | CC(=O)NC(CCCCNC(=S)NC1CCCCC1)C(=O)O (stereo not drawn) | inconclusive: 5.01 µM [activator, single point]
57 | O=C(c1cc(F)ccc1F)C1CCCN(C(=O)c2ccc(F)cc2Cl)C1 (stereo not drawn) | inconclusive: 12.6 µM [inhibitor, partial curve, poor fit]
58 | Cc1ccccc1Cn1cc(NC(=O)c2cc(-c3ccc(Cl)cc3)on2)cn1 | inconclusive: 6.31 µM [activator, single point]
59 | c1ccc2c(c1)CCC[C@H]2C1=NCCN1 | inactive
60 | O=c1cc(N2CCc3ccccc3C2)[nH]c(=O)n1C1CCCCC1 | inconclusive: 6.31 µM [inhibitor, single point]
61 | C=CCn1c(SCC(=O)NC)nnc1C12CC3CC(CC(C3)C1)C2 | inconclusive: 6.31 µM [inhibitor, single point]
62 | CN(C)c1ccc(NC(=O)/C=C/c2ccccc2Cl)cc1 | inactive
63 | Cc1ccnc2nc(C(=O)OCC(=O)NC3CCCC(C)C3C)nn12 (stereo not drawn) | inconclusive: 11.2 µM [activator, partial curve, poor fit]
64 | Nc1ccc(N2CCCC2)c(S(=O)(=O)Nc2cccc(C(F)(F)F)c2)c1 | inactive
65 | COc1ccc(Cn2c(C)c(C)c(C#N)c2NC(=O)Nc2ccc(Cl)cc2)cc1 | inconclusive: 7.94 µM [inhibitor, partial curve, poor fit]
66 | CCOC(=O)c1ccc(NC(=O)CN2CCN(C(=O)C3CCCO3)CC2)cc1 (stereo not drawn) | inconclusive: 35.5 µM [activator, single point]
67 | O=C(Nc1ccc[n+](CC(=O)c2cccc3ccccc23)c1)c1ccccc1 | inconclusive: 15.8 µM [inhibitor, single point]
68 | FC(F)(F)c1cccc(NC(=S)N(CCCN2CCCC2)Cc2cccn2Cc2ccc(Cl)cc2)c1 | inconclusive: 14.1 µM [inhibitor, partial curve, poor fit]

Two records drawn at random from those above, as already listed:
Row | Structure (SMILES) | Potency
17 | CCn1cc(C(C)NC(=O)COc2ccc(Cl)cc2C)c(C)n1 (stereo not drawn) | inconclusive: 14.6 µM [inhibitor, single point]
40 | CCN(CC)CC(=O)Nc1cc(N(C)C)nc2ccccc12 | inconclusive: 11.2 µM [inhibitor, partial curve, poor fit]

A few values from the entries so far:
Value for CCCC(c1nnnn1CC1CCCO1)N1CCN(c2nc3ccccc3s2)CC1 (stereo not drawn) under Potency: inconclusive: 14.1 µM [inhibitor, partial curve, poor fit]
Value for COC1=NS(=O)(=O)c2ccccc21 under Potency: inactive
